According to publication PMC5700101:
These are yes or no findings as the source states them, for the method shown. Binding seen in cells or lysates may run through a third protein. Binding can be weak; no strength is given. Tags and fused reporters may be left off the sequences shown.

Chains of the proteins cited; added tags and fusions are not shown. Lines headed by an entry give the natural chain unless they say otherwise; changes in a name come on top.
UniProt P52304: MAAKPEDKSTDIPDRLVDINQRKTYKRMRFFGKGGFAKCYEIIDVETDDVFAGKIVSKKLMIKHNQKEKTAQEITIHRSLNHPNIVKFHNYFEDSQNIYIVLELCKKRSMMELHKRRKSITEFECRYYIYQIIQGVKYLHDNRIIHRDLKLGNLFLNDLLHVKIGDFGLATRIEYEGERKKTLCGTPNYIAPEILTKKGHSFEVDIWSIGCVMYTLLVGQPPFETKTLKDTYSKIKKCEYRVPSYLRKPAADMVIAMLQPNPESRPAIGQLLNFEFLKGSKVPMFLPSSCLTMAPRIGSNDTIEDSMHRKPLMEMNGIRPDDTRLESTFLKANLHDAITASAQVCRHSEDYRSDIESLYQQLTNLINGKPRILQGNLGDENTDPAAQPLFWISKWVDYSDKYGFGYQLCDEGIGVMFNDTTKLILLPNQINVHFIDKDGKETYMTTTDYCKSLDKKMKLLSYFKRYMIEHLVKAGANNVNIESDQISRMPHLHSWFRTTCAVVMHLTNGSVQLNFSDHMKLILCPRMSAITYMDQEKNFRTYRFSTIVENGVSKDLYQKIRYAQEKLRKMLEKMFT

Target: Polo^NLS7A-GFP (Drosophila) (UniProt P52304)
Test: co-IP; lysates of D-Mel2 cells transfected with Myc-Cdc25 and Polo-GFP (WT or NLS7A), immunoprecipitation with anti-GFP antibodies and Protein A Dynabeads at 4 °C; western blot

binding: binds
B1: Myc-Cdc25(String) (enzyme, UniProt P20483 1-479)
chain: MLWETIVEENNCSMDCNISNNTSSSSSINKMSGSRRARRSLELMSMDQEELSFYDDDVVPQDQQRSASPELMGLLSPEGSPQRFQIVRQPKILPAMGVSSDHTPARSFRIFNSLSSTCSMESSMDDEYMELFEMESQSQQTALGFPSGLNSLISGQIKEQPAAKSPAGLSMRRPSVRRCLSMTESNTNSTTTPPPKTPETARDCFKRPEPPASANCSPIQSKRHRCAAVEKENCPAPSPLSQVTISHPPPLRKCMSLNDAEIMSALARSENRNEPELIGDFSKAYALPLMEGRHRDLKSISSETVARLLKGEFSDKVASYRIIDCRYPYEFEGGHIEGAKNLYTTEQILDEFLTVQQTELQQQQNAESGHKRNIIIFHCEFSSERGPKMSRFLRNLDRERNTNAYPALHYPEIYLLHNGYKEFFESHVELCEPHAYRTMLDPAYNEAYRHFRAKSKSWNGDGLGGATGRLKKSRSRLML
